Reference: PubChem BioAssay AID720505 (Drosophila RNAi Screening Center, 2013)
In all, the deposit lists about 20,000 reagents; this is an unselected part of those with a known target gene and a result. Of all reagents, about 2,100 (10%) are marked active. 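Raw plate signals without normalisation; calls rest on control-based scores that were not deposited; replicate 2 separates called from uncalled poorly.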 No sequences are given here. Not given: the amount of reagent, the time to read-out.

Screen: 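Genes needed for store-operated calcium entry in fly cells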 (primary screen)
Cell system: Drosophila S2R+ cells
Reagents: long dsRNA against Drosophila genes
Treatment: thapsigargin (2 µM) in calcium-free buffer to empty internal stores, then 2 mM calcium added back
Read-out: 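Stores emptied by 2 µM thapsigargin without calcium, then 2 mM calcium re-added; fluo-4 fluorescence followed by FLIPR in 384-well plates, per-well averaged endpoint, raw; two screen passes, some wells retested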
Direction: calcium signal and retest calcium signal: higher = more calcium entry after store depletion
Rule for the call: 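About 1500 genes called as lowering calcium entry, by varying amounts, judged against per-plate control wells with STIM1 as positive and Rho1 as negative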
Calls: active = called as lowering calcium entry; inactive = not called

CG14400 [DRSC02384]
- calcium signal, replicate 1: 178
- calcium signal, replicate 2: 106
- outcome: inactive

SerRS [DRSC00496]
- calcium signal, replicate 1: 139
- calcium signal, replicate 2: 163
- outcome: inactive

CG31693 [DRSC03674]
- calcium signal, replicate 1: 105
- calcium signal, replicate 2: 6467
- outcome: inactive

CG10194 [DRSC02025]
- calcium signal, replicate 1: 96.1
- calcium signal, replicate 2: 99.3
- outcome: inactive

CG5612 [DRSC15844]
- calcium signal, replicate 1: 68.8
- calcium signal, replicate 2: 75.6
- outcome: active

CG13840 [DRSC14690]
- calcium signal, replicate 1: 174
- calcium signal, replicate 2: 138
- outcome: inactive

CG13840 [DRSC23279]
- calcium signal, replicate 1: 143
- calcium signal, replicate 2: 160
- outcome: inactive

Naxe [DRSC18251]
- calcium signal, replicate 1: 74.8
- calcium signal, replicate 2: 98.5
- outcome: active

Datp [DRSC01102]
- calcium signal, replicate 1: 192
- calcium signal, replicate 2: 151
- outcome: inactive

CG17636 [DRSC20648]
- calcium signal, replicate 1: 130
- calcium signal, replicate 2: 80.3
- outcome: inactive

Nnk [DRSC15274]
- calcium signal, replicate 1: 116
- calcium signal, replicate 2: 134
- outcome: inactive

Top3beta [DRSC18724]
- calcium signal, replicate 1: 170
- calcium signal, replicate 2: 115
- outcome: inactive

CG9302 [DRSC03191]
- calcium signal, replicate 1: 76.5
- calcium signal, replicate 2: 102
- outcome: inactive

arr [DRSC07451]
- calcium signal, replicate 1: 147
- calcium signal, replicate 2: 142
- outcome: inactive

CG1690 [DRSC06636]
- calcium signal, replicate 1: 137
- calcium signal, replicate 2: 132
- outcome: inactive

CG9147 [DRSC03147]
- calcium signal, replicate 1: 153
- calcium signal, replicate 2: 118
- outcome: inactive

mRpL45 [DRSC16146]
- calcium signal, replicate 1: 166
- calcium signal, replicate 2: 126
- outcome: inactive

caz [DRSC20317]
- calcium signal, replicate 1: 56.8
- calcium signal, replicate 2: 166
- retest calcium signal, replicate 1: 157
- retest calcium signal, replicate 2: 7160
- outcome: active

caz [DRSC22594]
- calcium signal, replicate 1: 126
- calcium signal, replicate 2: 198
- outcome: inactive

caz [DRSC23280]
- calcium signal, replicate 1: 142
- calcium signal, replicate 2: 157
- outcome: inactive

3 neighbouring entries from above, for reference:
Top3beta [DRSC18724]
- calcium signal, replicate 1: 170
- calcium signal, replicate 2: 115
- outcome: inactive

CG9302 [DRSC03191]
- calcium signal, replicate 1: 76.5
- calcium signal, replicate 2: 102
- outcome: inactive

arr [DRSC07451]
- calcium signal, replicate 1: 147
- calcium signal, replicate 2: 142
- outcome: inactive
